This passage reports survivor count and T/C results from PubChem BioAssay AID248 (DTP/NCI, 2004).

The test system of this assay is L1210 leukemia ip in BDF1 mice, survival T/C. Kind of assay: NCI In Vivo Anticancer Drug Screen. Data for tumor model L1210 Leukemia (intraperitoneal) in B6D2F1 (BDF1) mice. Conditions: T/C endpoint: mean survival time, higher T/C = longer survival.

The list shows only some results of the screen, not a fair sample: it is rich in T/C values a quarter to a half above the control, in often repeated tests (any T/C) and in doses without a T/C. Further doses and runs are listed elsewhere. T/C: endpoint of the treated group in % of that of the vehicle group. Some doses have a count of surviving animals in place of a T/C: the source files T/C as zero there, which appears to mark a toxic dose or a test without result, not a measured value. Some doses without a T/C left all or most animals alive at the check, yet need not have been tolerated: the source hardly ever lists a survival T/C far under the control, and the zero likely stands for such cases as well. Survivors were counted at the toxicity check, usually on the fifth day, unless a day is given; later deaths do not show. Schedule codes are those of the source, taken here to give the interval after Q, in days (D) or hours (H), and the number of doses after X. Some entries hold several experiments; the values are given in rising order. Where survival is the endpoint, this PubChem deposit counts one and a half times the control or more as active, and values a quarter to a half above the control carry no call in these data; other NCI protocols may use other cut-offs. Some T/C values are followed by the survivors on the day toxicity was checked, most often the fifth; without a count, all were alive then.

For the compound `Nc1ccc(Cl)cc1N`, the survivor count (dose: 265.0 mg/kg/injection, schedule: Q01DX009 (ip), vehicle: other) was 6 of 10; the survivor count (dose: 400.0 mg/kg/injection, schedule: Q01DX009 (ip), vehicle: other) is 2 of 10 and 3 of 3; the survivor count (dose: 600.0 mg/kg/injection, schedule: Q01DX001 (ip), vehicle: other) is 2 of 10; the survivor count (dose: 600.0 mg/kg/injection, schedule: Q01DX009 (ip), vehicle: other) is listed as 0 of 3; the survivor count (dose: 600.0 mg/kg/injection, schedule: Q04DX003 (ip), vehicle: other) is 1 of 10. Besides, the T/C (dose: 400.0 mg/kg/injection, schedule: Q01DX009 (ip), vehicle: saline with Tween-80) was 125 % of control [2 of 3 alive].

In the case of `COc1ccc2c(c1)CCC1C2=CC(=O)/C1=C\[O-].COc1ccc2c(c1)CCC1C2=CC(=O)/C1=C\[O-].[Cu+2]` (stereo unspecified), the survivor count is, setting by setting: (dose: 200.0 mg/kg/injection, schedule: Q01DX009 (ip), vehicle: saline with Tween-80) 0 of 6; (dose: 400.0 mg/kg/injection, schedule: Q04DX003 (ip), vehicle: saline) 5 of 6.

Consider `CC1=C2CC3CCC(C)C2(CC1)C3(C)C` (stereo unspecified), for which the survivor count (dose: 200.0 mg/kg/injection, schedule: Q01DX009 (ip), vehicle: saline) is listed as 6 of 6.

As to `N=c1ccn(C(=O)C2=Cc3ccccc3OC2)cc1`, the survivor count (dose: 40.0 mg/kg/injection, schedule: Q04DX003 (ip), vehicle: saline with Tween-80) is 0 of 6.

Turning to `CC(=O)N(C)c1ccccc1`, the survivor count (dose: 200.0 mg/kg/injection, schedule: Q04DX002 (ip), vehicle: saline) is listed as 2 of 3 and the survivor count (dose: 400.0 mg/kg/injection, schedule: Q04DX002 (ip), vehicle: saline) is listed as 1 of 3.

As for `N#CCC(C#N)N1CCOCC1` (stereo unspecified), the survivor count is, setting by setting: (dose: 200.0 mg/kg/injection, schedule: Q04DX003 (ip), vehicle: saline with Tween-80) 0 of 6; (dose: 400.0 mg/kg/injection, schedule: Q04DX003 (ip), vehicle: saline with Tween-80) 0 of 6.

Take `NC(N)=N/N=C(\c1ccc(F)cc1)c1ccc(C(F)(F)F)cc1`: the survivor count is, setting by setting: (dose: 75.0 mg/kg/injection, schedule: Q01DX001 (ip), vehicle: other) 0 of 6; (dose: 150.0 mg/kg/injection, schedule: Q01DX001 (ip), vehicle: other) 0 of 6; (dose: 300.0 mg/kg/injection, schedule: Q01DX001 (ip), vehicle: other) 0 of 6.

Consider `O=C(O)C1C(C(=O)O)C2(Cl)C(Cl)=C(Cl)C1(Cl)C2(Cl)Cl.[Co]` (stereo unspecified), for which the T/C (dose: 100.0 mg/kg/injection, schedule: Q01DX009 (ip), vehicle: saline sonified) was 133 % of control. For the same compound, where the note is “dose: 200.0 mg/kg/injection, schedule: Q01DX009 (ip), vehicle: saline sonified”, the survivor count is reported as 5 of 6.

As for `CS(=O)(=O)OC[C@H](OS(=O)(=O)O)[C@H](COS(C)(=O)=O)OS(=O)(=O)O`, the survivor count (dose: 400.0 mg/kg/injection, schedule: Q01DX001 (ip), vehicle: saline) was 2 of 6.

Turning to `CS(=O)(=O)OCCCOS(C)(=O)=O`, the survivor count (dose: 300.0 mg/kg/injection, schedule: Q01DX009 (ip), vehicle: Klucel (hydroxypropylcellulose) (HPC)) is 4 of 6.
